Residue numbers refer to the chain shown, from its start. Names and notes keep the numbering of the source. Some entries share one result that the patent states for a list of compounds.
B1: L32C: cysteine variant of P54AR4-83v2; NEM and VC-MMAF conjugates (conjugate)
chain: LPAPKNLVVSEVTEDSARLSWDDPWAFYESFCIQYQESEKVGEAIVLTVPGSERSYDLTGLKPGTEYTVSIYGVHNVYKDTNMRGLPLSAIFTT
modifications: left off: small tags and cut ends
notes: cysteine variant of P54AR4-83v2; NEM and VC-MMAF conjugates
B2: Y72C: cysteine variant of P54AR4-83v2; NEM and VC-MMAF conjugates (conjugate)
chain: B1 chain with C32L, Y72C
modifications: left off: small tags and cut ends
notes: as for B1
B3: V74C: cysteine variant of P54AR4-83v2; NEM and VC-MMAF conjugates (conjugate)
chain: B1 chain with C32L, V74C
modifications: left off: small tags and cut ends
notes: as for B1

system: EGFR-overexpressing human tumor cell line H1573; experiment: Cytotoxicity assay in H1573 cells; format: cell-based; conditions: VC-MMAF conjugates, read-out: IC50 (text, more than two times that of the parent)
Description: Cell killing was assessed by measuring viability of the EGFR-overexpressing human tumor cell line H1573 following exposure to the cysteine variant-cytotoxin conjugates. Cells were plated in black-well, clear bottomed, tissue culture-treated plates (Falcon 353219) at 7000/well in 100 μL/well of phenol red free RPMI media (Gibco 11835-030) with 5% fetal bovine serum (Gibco). Cells were allowed to attach overnight at 37° C. in a humidified 5% CO2 atmosphere. Medium was aspirated from 96-well plate and cells were treated with 50 uL of fresh media and 50 uL of 2× inhibitor made up in fresh media. Cell viability was determined by an endpoint assay with Cell TiterGlo (Promega) at 70 hours. IC50 values were determined by fitting data to the equation for a sigmoidal dose response with variable slope using GraphPad Prism 5 (GraphPad Software). Table 11 reports IC50 values obtained from analysis of the CellTiter Glo data.
Conjugates consisting of ECB147 cysteine variants, 83v2-cys, or Tencon-cys linked to a cytotoxic tubulin inhibitor from the auristatin family (FIG. 2) were tested for target-dependent cytotoxicity in cancer cells. The inhibitor was linked to the cysteine-containing protein via a non-cleavable PEG4 linker or an enzyme-cleavable valine-citrulline or valine-lysine linker. Cell killing was assessed by measuring viability of the EGFR-overexpressing human tumor cell lines H1573 and A431 as well as the EGFR-negative tumor cell line MDA-MB-435 following exposure to the protein-cytotoxin conjugates using the procedure described in Example 4.

| Molecule | IC50 [nM] |
| --- | --- |
| B1 | > 1.4 |
| B2 | > 1.4 |
| B3 | > 1.4 |
